Assay results taken from patent publication US20240024281A1, “METHODS AND COMPOSITIONS FOR TREATING LIVER DISEASES” (INSTITUT NATIONAL DE LA SANTÉ ET DE LA RECHERCHE MÉDICALE, priority 2018, published 2024).
At least one compound was matched to its structure with a doubt left.

Tested on: liver cancer cell (HepG2, Huh7 and Hep3B)
Test: Liver cancer cell proliferation
Type: cell-based
Conditions: 50 μM pre-treatment, Sorafenib 5 μM, STF 60 μM, 24 hours, FIGS. 5A and 5B
Procedure: FIG. 3A-B: Inhibition of IRE1α RNase signalling with STF potentiates the effectiveness of Sorafenib in reducing liver cancer cell proliferation and inducing apoptosis. Effect of Sorafenib (SORA, 5 μM), STF-083010 (STF, 60 μM) and their combination on (A) liver cancer cell proliferation (HepG2, Huh7 and Hep3B) and on (B) inducing apoptosis. STF-083010 was added one hour before SORA. Stimulations were performed during 24 hours. $p<0.05 when comparing treated to untreated counterpart. Results are expressed as mean with SEM *p<0.05, **p<0.01, ***p<0.001 and ****p<0.0001.
FIG. 4: Hyperactive IRE1α RNase triggers secretion of pro-inflammatory markers. Effect of Sorafenib (SORA, […]), Ac-YVAD-CMK (YVAD, 25 μM) and their combination on liver cancer cell proliferation (HepG2) and on inducing apoptosis. Ac-YVAD-CMK (YVAD) was added one hour before SORA. Stimulations were performed during 24 hours. $p<0.05 when comparing treated to untreated counterpart. Results are expressed as mean with SEM *p<0.05, **p<0.01, ***p<0.001 and ****p<0.0001.
FIG. 5A-B: Co-treatment enhancing apoptosis via IRE1α kinase activity. […] Results are expressed as mean with SEM *p<0.05, **p<0.01, ***p<0.001 and ****p<0.0001.

Oc1c2ccccc2c2c3c(cccc13)N=N2 [SP600125]
effect of Sorafenib and SFT-083010 on cancer cell proliferation after pre-treatment: inhibit the effect
